# The other results are listed elsewhere or left out. Small differences around the control level are noise.
# Protein sequences, listed by entry. Tags and fused reporters are not part of them. Lines headed by an entry give the natural chain unless they say otherwise; changes in a name come on top.
# UniProt Q09200: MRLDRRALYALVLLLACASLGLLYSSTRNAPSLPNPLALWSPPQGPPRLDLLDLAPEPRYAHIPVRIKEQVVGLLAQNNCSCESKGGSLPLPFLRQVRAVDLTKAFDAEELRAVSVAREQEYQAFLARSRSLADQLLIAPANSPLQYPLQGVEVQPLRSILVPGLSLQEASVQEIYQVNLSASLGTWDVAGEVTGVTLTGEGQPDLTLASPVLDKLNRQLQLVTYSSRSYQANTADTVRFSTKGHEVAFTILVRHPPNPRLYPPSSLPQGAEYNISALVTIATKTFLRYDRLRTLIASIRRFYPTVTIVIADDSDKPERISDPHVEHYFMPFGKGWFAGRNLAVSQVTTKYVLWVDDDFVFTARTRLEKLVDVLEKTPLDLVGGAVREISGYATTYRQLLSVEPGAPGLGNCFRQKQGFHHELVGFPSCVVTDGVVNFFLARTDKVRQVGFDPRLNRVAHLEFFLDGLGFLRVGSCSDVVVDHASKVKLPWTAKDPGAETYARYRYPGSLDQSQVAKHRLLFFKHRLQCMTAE
# UniProt Q3U182: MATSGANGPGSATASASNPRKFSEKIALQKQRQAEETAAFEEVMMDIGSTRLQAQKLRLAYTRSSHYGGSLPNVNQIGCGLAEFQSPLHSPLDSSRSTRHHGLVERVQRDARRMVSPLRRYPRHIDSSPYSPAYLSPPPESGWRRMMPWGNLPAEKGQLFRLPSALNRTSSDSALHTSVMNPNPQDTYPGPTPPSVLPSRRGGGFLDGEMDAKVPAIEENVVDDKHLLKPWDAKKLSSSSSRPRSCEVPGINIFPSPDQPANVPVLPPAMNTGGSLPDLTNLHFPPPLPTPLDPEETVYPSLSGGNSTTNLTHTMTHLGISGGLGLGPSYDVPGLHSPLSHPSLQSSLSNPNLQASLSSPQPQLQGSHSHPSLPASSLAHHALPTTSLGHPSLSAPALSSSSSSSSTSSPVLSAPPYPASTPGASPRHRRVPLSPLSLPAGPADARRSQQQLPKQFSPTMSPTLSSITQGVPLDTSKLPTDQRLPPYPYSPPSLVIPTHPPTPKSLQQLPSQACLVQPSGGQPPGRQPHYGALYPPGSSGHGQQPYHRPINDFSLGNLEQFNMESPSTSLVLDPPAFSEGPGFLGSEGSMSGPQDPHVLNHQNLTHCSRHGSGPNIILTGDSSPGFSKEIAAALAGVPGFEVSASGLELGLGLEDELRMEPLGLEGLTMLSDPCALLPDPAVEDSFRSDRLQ
# UniProt Q3U1N2: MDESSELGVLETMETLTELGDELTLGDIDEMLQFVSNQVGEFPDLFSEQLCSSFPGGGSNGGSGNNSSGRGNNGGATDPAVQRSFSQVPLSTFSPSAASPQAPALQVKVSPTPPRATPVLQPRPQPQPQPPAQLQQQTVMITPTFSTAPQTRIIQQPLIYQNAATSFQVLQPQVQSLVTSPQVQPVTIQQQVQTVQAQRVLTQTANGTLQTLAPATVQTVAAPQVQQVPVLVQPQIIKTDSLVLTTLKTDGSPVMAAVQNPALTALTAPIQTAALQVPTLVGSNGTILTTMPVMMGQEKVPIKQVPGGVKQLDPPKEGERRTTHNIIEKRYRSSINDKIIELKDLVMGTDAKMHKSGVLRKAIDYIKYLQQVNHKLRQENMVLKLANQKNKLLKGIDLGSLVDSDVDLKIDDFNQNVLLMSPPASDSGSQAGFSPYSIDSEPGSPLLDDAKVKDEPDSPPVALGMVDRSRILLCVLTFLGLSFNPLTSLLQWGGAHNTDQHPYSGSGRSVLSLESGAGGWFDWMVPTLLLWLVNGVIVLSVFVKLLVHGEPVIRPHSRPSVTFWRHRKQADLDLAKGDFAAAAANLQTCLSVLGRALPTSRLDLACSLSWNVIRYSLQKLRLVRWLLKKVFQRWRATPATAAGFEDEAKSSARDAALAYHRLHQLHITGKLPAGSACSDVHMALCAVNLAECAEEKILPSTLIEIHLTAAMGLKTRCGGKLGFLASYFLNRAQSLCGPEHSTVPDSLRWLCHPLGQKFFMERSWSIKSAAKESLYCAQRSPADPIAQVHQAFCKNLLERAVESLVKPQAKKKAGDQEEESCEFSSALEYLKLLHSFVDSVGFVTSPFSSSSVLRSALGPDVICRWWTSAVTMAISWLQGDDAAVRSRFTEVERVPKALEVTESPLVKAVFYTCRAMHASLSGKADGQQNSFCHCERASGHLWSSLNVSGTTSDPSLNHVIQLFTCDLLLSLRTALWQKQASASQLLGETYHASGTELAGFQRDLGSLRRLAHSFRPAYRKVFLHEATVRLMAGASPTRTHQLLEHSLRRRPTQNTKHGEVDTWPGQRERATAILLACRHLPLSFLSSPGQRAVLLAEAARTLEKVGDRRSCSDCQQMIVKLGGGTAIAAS
# UniProt Q0KL01: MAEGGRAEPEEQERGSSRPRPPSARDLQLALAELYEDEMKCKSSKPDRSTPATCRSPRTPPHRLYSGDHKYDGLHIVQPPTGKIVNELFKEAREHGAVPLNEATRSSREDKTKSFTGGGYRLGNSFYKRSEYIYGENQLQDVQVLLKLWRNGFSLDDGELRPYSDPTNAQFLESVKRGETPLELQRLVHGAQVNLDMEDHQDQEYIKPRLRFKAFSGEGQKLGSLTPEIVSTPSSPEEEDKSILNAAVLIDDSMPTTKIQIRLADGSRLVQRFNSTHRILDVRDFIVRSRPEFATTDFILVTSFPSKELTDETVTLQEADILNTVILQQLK
# UniProt Q04857: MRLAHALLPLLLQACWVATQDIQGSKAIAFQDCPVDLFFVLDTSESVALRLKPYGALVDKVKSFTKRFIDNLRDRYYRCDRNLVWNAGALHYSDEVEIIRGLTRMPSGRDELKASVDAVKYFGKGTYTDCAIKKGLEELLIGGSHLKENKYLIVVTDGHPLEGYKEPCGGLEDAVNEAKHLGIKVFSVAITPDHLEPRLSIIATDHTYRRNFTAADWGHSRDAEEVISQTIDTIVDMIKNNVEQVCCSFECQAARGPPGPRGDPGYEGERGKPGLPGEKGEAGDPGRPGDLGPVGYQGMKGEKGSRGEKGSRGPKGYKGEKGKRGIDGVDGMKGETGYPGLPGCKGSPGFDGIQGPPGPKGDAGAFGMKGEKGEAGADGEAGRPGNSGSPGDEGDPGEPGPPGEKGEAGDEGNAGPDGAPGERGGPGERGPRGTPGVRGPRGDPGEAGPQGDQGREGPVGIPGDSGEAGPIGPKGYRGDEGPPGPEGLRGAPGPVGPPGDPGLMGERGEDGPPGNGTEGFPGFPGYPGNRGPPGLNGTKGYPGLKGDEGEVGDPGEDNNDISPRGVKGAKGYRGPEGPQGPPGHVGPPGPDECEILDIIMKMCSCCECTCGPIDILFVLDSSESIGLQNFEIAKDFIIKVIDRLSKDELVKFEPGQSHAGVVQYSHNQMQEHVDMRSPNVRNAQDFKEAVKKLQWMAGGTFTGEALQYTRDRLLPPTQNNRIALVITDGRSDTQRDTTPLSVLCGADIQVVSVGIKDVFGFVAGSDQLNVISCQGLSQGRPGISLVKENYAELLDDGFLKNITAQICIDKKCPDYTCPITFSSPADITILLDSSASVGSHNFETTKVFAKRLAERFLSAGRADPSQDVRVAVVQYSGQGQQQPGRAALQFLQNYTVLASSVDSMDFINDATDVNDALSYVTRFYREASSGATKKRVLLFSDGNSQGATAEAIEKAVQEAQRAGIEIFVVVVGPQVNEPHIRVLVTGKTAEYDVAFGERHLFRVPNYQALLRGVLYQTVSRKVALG
# UniProt Q0VBD2: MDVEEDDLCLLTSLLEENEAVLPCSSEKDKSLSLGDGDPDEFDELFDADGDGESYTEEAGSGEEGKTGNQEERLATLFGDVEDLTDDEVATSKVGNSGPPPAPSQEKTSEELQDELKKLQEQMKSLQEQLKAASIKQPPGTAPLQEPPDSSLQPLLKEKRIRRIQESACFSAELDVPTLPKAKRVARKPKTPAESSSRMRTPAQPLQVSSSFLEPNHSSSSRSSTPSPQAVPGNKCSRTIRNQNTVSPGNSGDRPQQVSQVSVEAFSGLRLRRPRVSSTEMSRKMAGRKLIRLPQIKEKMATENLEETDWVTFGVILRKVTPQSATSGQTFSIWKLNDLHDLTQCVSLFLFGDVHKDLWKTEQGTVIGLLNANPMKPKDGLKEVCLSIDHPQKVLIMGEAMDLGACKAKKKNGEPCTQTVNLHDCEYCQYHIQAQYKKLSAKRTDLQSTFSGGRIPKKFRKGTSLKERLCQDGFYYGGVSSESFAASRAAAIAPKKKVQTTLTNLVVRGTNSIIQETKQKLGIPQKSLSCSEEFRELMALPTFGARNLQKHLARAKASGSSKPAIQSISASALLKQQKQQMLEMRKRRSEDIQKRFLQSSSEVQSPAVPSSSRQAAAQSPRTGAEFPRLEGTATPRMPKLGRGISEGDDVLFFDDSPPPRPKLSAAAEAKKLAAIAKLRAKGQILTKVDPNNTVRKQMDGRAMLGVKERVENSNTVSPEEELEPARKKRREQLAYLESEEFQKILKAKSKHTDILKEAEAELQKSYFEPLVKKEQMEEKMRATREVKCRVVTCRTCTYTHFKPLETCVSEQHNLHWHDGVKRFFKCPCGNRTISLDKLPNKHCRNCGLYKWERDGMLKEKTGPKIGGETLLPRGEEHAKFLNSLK
# UniProt Q08093: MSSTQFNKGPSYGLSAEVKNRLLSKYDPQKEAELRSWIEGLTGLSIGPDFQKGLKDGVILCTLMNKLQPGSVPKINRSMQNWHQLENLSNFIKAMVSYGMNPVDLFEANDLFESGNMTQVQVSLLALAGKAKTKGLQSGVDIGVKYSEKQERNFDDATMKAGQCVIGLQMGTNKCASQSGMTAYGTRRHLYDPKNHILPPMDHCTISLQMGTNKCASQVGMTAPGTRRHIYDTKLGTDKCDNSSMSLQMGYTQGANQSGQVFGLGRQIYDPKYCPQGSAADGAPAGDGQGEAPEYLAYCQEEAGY
# UniProt Q3TB48: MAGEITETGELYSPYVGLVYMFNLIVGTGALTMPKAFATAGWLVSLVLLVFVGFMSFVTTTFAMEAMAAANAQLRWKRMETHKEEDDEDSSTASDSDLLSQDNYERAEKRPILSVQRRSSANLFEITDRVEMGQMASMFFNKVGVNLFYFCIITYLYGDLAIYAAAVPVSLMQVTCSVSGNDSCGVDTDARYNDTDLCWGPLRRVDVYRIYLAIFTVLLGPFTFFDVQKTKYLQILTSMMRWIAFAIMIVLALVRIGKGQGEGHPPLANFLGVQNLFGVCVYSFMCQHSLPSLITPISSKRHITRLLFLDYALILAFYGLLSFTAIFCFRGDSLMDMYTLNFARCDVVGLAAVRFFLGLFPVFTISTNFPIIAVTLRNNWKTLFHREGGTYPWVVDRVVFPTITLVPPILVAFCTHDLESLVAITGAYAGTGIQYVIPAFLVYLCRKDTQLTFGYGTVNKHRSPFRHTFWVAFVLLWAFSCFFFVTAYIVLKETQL
# UniProt Q08091: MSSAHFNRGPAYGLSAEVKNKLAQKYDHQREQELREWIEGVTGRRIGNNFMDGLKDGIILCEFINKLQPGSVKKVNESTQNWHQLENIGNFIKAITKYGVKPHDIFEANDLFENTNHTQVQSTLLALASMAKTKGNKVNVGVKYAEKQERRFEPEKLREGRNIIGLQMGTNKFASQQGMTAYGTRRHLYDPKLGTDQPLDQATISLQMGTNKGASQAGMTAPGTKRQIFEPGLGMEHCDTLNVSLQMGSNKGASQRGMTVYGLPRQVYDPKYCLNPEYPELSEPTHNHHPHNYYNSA
# Compound: CN[C@@H]1C[C@H]2O[C@@](C)([C@@H]1OC)n1c3ccccc3c3c4c(c5c6ccccc6n2c5c31)C(=O)NC4 [staurosporine]
# Assay: log2 fold change of tryptic peptide abundance, ligand vs vehicle (limited proteolysis) (log2 ratio); higher = more trypsin-susceptible (destabilized)
# Conditions: ligand concentration: 20 uM; sample: mouse liver crude lysate; replicate design: treated separately
row,Target,log2 fold change
1,"UniProt Q09200 (peptide sequence: YRYPGSLDQSQVAK, peptide start residue: 504)",0.175
2,"UniProt Q3U182 (peptide sequence: HLLKPWDAK, peptide start residue: 226)",0.441
3,"UniProt Q3U1N2 (peptide sequence: AVLLAEAAR, peptide start residue: 1092)",0.193
4,"UniProt Q0KL01 (peptide sequence: EHGAVPLNEATR, peptide start residue: 94)",-0.123
5,"UniProt Q04857 (peptide sequence: LSIIATDHTYRR, peptide start residue: 199)",0.355
6,"UniProt Q3TCX3 (peptide sequence: FTEELPDER, peptide start residue: 462)",0.335
7,"UniProt Q0VBD2 (peptide sequence: FFKCPCGNR, peptide start residue: 823)",-0.396
8,"UniProt Q08093 (peptide sequence: NHILPPMDHCTISLQMGTNK, peptide start residue: 195)",-0.491
9,"UniProt Q3TB48 (peptide sequence: AEKRPILSVQR, peptide start residue: 107)",-0.271
10,"UniProt Q0P5W1 (peptide sequence: QDENTKEDILLK, peptide start residue: 1101)",0.469
11,"UniProt Q08091 (peptide sequence: GASQAGMTAPGTK, peptide start residue: 213)",0.137

# A second format for part of the listing above:
row | Target | log2 fold change
1 | UniProt Q09200 (peptide sequence: YRYPGSLDQSQVAK, peptide start residue: 504) | 0.175
6 | UniProt Q3TCX3 (peptide sequence: FTEELPDER, peptide start residue: 462) | 0.335

# Source: the supplement of paper PMC12819154, “High-throughput peptide-centric local stability assay extends protein–ligand identification to membrane proteins, tissues and bacteria” (Nature Structural & Molecular Biology, 2025)
